Measurements from “University of Dundee, Small-Polar-MMV Screening Library” (2021), ChEMBL document CHEMBL3988442.

Chains of the proteins cited; added tags and fusions are not shown.
UniProt P9WNZ1, whole entry: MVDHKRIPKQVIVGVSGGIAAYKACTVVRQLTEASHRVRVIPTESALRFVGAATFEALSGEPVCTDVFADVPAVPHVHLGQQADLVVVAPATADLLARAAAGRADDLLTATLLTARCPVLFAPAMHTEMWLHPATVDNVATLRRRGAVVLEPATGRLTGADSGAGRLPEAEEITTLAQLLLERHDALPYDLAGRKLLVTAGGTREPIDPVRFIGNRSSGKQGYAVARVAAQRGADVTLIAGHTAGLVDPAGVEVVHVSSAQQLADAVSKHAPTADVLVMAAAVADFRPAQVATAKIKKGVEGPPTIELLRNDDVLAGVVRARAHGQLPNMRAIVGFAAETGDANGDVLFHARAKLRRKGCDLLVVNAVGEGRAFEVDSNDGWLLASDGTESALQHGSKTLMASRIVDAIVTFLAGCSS

CoaBC: 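Coenzyme A biosynthesis protein CoaBC, Mycobacterium tuberculosis (UniProt P9WNZ1). Enzyme assay of CoaBC with a phosphate dye (Biomol Green) read at 650 nm. Concentration: 30 µM. Direction is inferred from only a few compounds that gave an IC50; most scored high, so higher reads as stronger inhibition. Most strong results did not repeat in a second test. About 67,000 compounds were tested under these conditions; 0.06% (about 40) showed 50% or more at least once.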
Leishmania in macrophages: 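Cell assay of Leishmania donovani living inside macrophages; the read-out is not stated. Concentration: 30 µM. The record gives no direction; compounds that gave an IC50 in retests scored well above the rest, so higher reads as stronger inhibition. Size under these conditions: about 69,000 compounds, about 1,000 of them at 50% or above in at least one test.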

Values are the deposited “Percent Effect”, in %.
The record does not define 0% and 100%; most values in the screen are far below 50% and negative numbers occur (in some assays of this library far below -100).
The compounds are a random part of those screened.
A dash means the value is not listed here; it may have been measured.

With Cc1oncc1C(=O)NCc1cc(=O)n2c(n1)CN(CC1CC1)CCC2.O=C(O)C(F)(F)F the screen gave Leishmania in macrophages: 17.18%.
With O=C(O)C(F)(F)F.O=C(O)C(F)(F)F.O=C(c1ccncc1)N1CCOC2(COCCN(c3cccnc3)C2)C1 (stereo not shown) the screen gave Leishmania in macrophages: 3.824%.
With O=C(Nc1ccccc1)C1=NOC2(CCCN(C(=O)C3CCCC3)C2)C1 (stereo not shown) the screen gave CoaBC: 2.469%; Leishmania in macrophages: 3.829%.
With COCC(O)CN(C)c1cc(C(F)(F)F)nc(-c2cccnc2)n1 (stereo not shown) the screen gave CoaBC: 5.372%; Leishmania in macrophages: 16.26%.
With O=C(O)c1cccc(CN2CCCC(Cc3ccn[nH]3)C2)c1 (stereo not shown) the screen gave CoaBC: 0%; Leishmania in macrophages: 30.56%.
With CNC(=O)c1cc(C2CCCNC2)n[nH]1.Cl (stereo not shown) the screen gave Leishmania in macrophages: 25.05%.
With CC(C)(C)OC(=O)N[C@@H]1C[C@@H](O)CN(C(=O)c2cccc(F)c2)C[C@H]1O the screen gave CoaBC: -1.35%; Leishmania in macrophages: 29.87%.
With O=C(O)C(F)(F)F.[H][C@@]12CCN(Cc3cn(C)c4ccccc34)[C@]1([H])CC[C@@H](C(=O)NC)O2 the screen gave Leishmania in macrophages: -0.8685%.
With CC(C)C(C(=O)N1CCN(Cc2cscn2)CC1)n1cncn1 (stereo not shown) the screen gave CoaBC: 5.33%; Leishmania in macrophages: 3.622%.
With [H][C@]12CC[C@@]3(N=C(CC)N(C)C3=O)[C@@]1([H])CN(S(=O)(=O)CC(C)C)C2 the screen gave Leishmania in macrophages: 17.02%.
With CCNc1cc2c(nn1)CCN(C(=O)c1ccoc1)C2 the screen gave CoaBC: 5.483%; Leishmania in macrophages: 7.504%.
With Cc1nc(C)n(CC2CN(Cc3cccc4ccccc34)CCO2)n1 (stereo not shown) the screen gave CoaBC: 2.477%; Leishmania in macrophages: 32.95%.
With Cc1occc1C(=O)N1C[C@H]2CCCC(OCc3cccnc3)[C@H]2C1 (stereo partly shown) the screen gave CoaBC: 7.492%.
With NC(=O)C1CCCN(c2ccc(CNC(=O)c3cnsn3)cc2)C1 (stereo not shown) the screen gave CoaBC: 12.34%; Leishmania in macrophages: 10.76%.
With O=C1NCC(C(=O)NCc2ccccc2CN2CCOCC2)N1 (stereo not shown) the screen gave CoaBC: 2.42%; Leishmania in macrophages: 4.847%.
With O=C(C1CCCCO1)N1CCc2ncnc(NCCO)c2CC1 (stereo not shown) the screen gave CoaBC: 0.369%; Leishmania in macrophages: 13.72%.
With CCOCC1CC2(CCN(C(=O)c3cscn3)CC2)CO1 (stereo not shown) the screen gave CoaBC: 5.462%; Leishmania in macrophages: 8.141%.
With [H][C@@]12C[C@@H](OCC3CC3)CN1CCN(S(=O)(=O)c1cccs1)C2 the screen gave Leishmania in macrophages: -10.3%.
With O=c1c2cnc(N3CCCC3)nc2ccn1-c1cccc(C(F)(F)F)c1 the screen gave CoaBC: -2.784%; Leishmania in macrophages: 4.602%.
With CC1CCCN(Cc2cccc(C(=O)Nc3nccs3)c2)C1 (stereo not shown) the screen gave CoaBC: 3.883%; Leishmania in macrophages: -6.392%.
With CC(=O)N(C)CCc1nc(-c2cc(C(N)=O)co2)cs1 the screen gave CoaBC: -0.7353%; Leishmania in macrophages: 7.079%.
With Cc1ccc(CN(C)C)cc1NC(=O)C1CC1 the screen gave Leishmania in macrophages: 27.02%.
With Cc1nnc(NC(=O)NCc2ccc(N3CCNC(=O)C3)cc2)s1 the screen gave CoaBC: -0.7009%; Leishmania in macrophages: 23.46%.
With CCCc1n[nH]c(C2CN(C(=O)Cc3ccc(C)nc3)CCO2)n1 (stereo not shown) the screen gave CoaBC: -0.9615%; Leishmania in macrophages: 34.55%.
With CCN1CCN(C(C)CNC(=O)Nc2nnc(C(C)C)s2)CC1 (stereo not shown) the screen gave CoaBC: -13.62%; Leishmania in macrophages: 1.683%.
With CN(Cc1ccccc1)C(=O)CCNc1ncccc1C#N the screen gave CoaBC: 1.167%; Leishmania in macrophages: 5.514%.
With CC(C)c1noc(C(C)N2CCN(Cc3ccco3)CC2)n1 (stereo not shown) the screen gave CoaBC: -3.506%; Leishmania in macrophages: 25.51%.
With CCOCc1nccc(-c2ccc(OCC)c(C(=O)O)c2)n1 the screen gave CoaBC: 2.381%; Leishmania in macrophages: 2.049%.
With CC(C)n1c(C2CCCN(Cc3ccnn3C)C2)nc2ccccc21 (stereo not shown) the screen gave CoaBC: 3.109%; Leishmania in macrophages: 7.956%.
With CCn1ncc2[nH]c(-c3cc(OC)c(OC)cc3OC)nc21 the screen gave CoaBC: -7.775%; Leishmania in macrophages: 2.687%.
With Cc1cccc(CN2CCN(C(=O)[C@@H]3CSCN3C)CC2)c1 the screen gave CoaBC: 14.09%; Leishmania in macrophages: 9.788%.
With N#CCCCOc1cccnc1NC(=O)CCC1CCCC1 the screen gave CoaBC: 4.592%; Leishmania in macrophages: 16.72%.
With Cc1cc(F)ccc1N1CCCC(NC2CCOCC2)C1=O (stereo not shown) the screen gave CoaBC: 3.037%; Leishmania in macrophages: 4.852%.
With CN(C)S(=O)(=O)NCc1cccnc1Oc1ccc(F)c(F)c1 the screen gave CoaBC: 6.79%; Leishmania in macrophages: 22.5%.
With NC(=O)c1cnc(NC2CCC(c3ccccc3)CC2)c(Cl)c1 (stereo not shown) the screen gave CoaBC: -3.566%; Leishmania in macrophages: -15.14%.
With CCn1nc2c(cc1=O)CN(c1nc3ccccc3s1)CC2 the screen gave CoaBC: -13.51%; Leishmania in macrophages: -16.17%.
With CN(C)C[C@H]1CC[C@@H](Cc2ccc3c(cnn3C)c2)O1 the screen gave CoaBC: 3.871%; Leishmania in macrophages: 8.58%.
With Cc1nn(CC(C)C)c(C)c1CC(=O)N1CCCC(NS(C)(=O)=O)C1 (stereo not shown) the screen gave CoaBC: -3.511%; Leishmania in macrophages: 26.47%.
With O=C(O)Cc1cn2cc(C(F)(F)F)ccc2n1 the screen gave CoaBC: -0.6904%; Leishmania in macrophages: -0.04694%.
With CCOc1ccc(C(=O)N2CCCC2c2c(C)nn(C)c2OC)cn1 (stereo not shown) the screen gave CoaBC: -6.434%; Leishmania in macrophages: 5.135%.
With CCOC(=O)NC(C(=O)NCc1ccc(N2CCCCC2)nc1)C(C)C (stereo not shown) the screen gave CoaBC: 1.542%; Leishmania in macrophages: 21.08%.
With CC(O)(CNC(=O)NCc1cccc(-n2cncn2)c1)c1ccco1 (stereo not shown) the screen gave CoaBC: 2.575%; Leishmania in macrophages: 0.6061%.
With Cc1nc2n(n1)CC(NCCC(=O)Nc1cc(C)on1)CC2 (stereo not shown) the screen gave CoaBC: 5.867%; Leishmania in macrophages: 29.83%.

Repeated from the top, 3 entries:

Compound	CoaBC	Leishmania in macrophages
Cc1oncc1C(=O)NCc1cc(=O)n2c(n1)CN(CC1CC1)CCC2.O=C(O)C(F)(F)F	-	17.18
O=C(O)C(F)(F)F.O=C(O)C(F)(F)F.O=C(c1ccncc1)N1CCOC2(COCCN(c3cccnc3)C2)C1 (stereo not shown)	-	3.824
O=C(Nc1ccccc1)C1=NOC2(CCCN(C(=O)C3CCCC3)C2)C1 (stereo not shown)	2.469	3.829